Data taken from US20100221248A1.

Biological target: RIIIA 158F 176F tetramer (biotinylated human FcγRIIIA complexed to streptavidin-PE) (human)
Assay: blocking assay, flow cytometry; competitor yeast-displayed IIIA537

- binding: binds
B1: MBP-IIIA537 (designed binder, not shown: large carriers)
chain: LGENLYFQSVSDVPRDLEVVVATPTSLLINWDLPFSDSYRITYGETGGNSPVQGFTVPGTESIATISGLKPGVDYTITVYAVASSGSNSYPISINYRTEIDKPSQ

These are yes or no findings as the source states them, for the method shown. A result given as binding can be weak or reduced; the word gives no strength. Sequences can lack the tags named with a protein.
